# The list shows a part of the results.
# Assays:
# Assay in all cases: glycan array binding signal (z-score within array); higher = stronger binding
# Details in all cases: glycan notation: IUPAC condensed, linker removed
# [1] = molecular target: Fuc(a1-3)[Gal3S(b1-4)]GlcNAc
# Summary of the method: (§1)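 From the Consortium for Functional Glycomics database, 3228 arrays were curated, keeping only those whose protein sequence was available. Binding is given as a within-array Z-score averaged across arrays sharing a protein sequence and across linkers. Negative Z-scores can be read as non-binding.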
# [2] = molecular target: Fuc(a1-3)[Gal3S(b1-4)]GlcNAc6S
# Summary of the method: as §1
# [3] = molecular target: Fuc(a1-3)[GalNAc(b1-4)]GlcNAc
# Summary of the method: as §1
# [4] = molecular target: Fuc(a1-3)[GalNAc(b1-4)]GlcNAc6S
# Summary of the method: as §1
# [5] = molecular target: Fuc(a1-4)GlcNAc
# Summary of the method: as §1
# [6] = molecular target: Fuc(b1-3)GlcNAc
# Summary of the method: as §1
# [7] = molecular target: Gal(a1-2)Gal
# Summary of the method: as §1
# [8] = molecular target: Gal(a1-3)Gal
# Summary of the method: as §1
# [9] = molecular target: Gal(a1-3)Gal(b1-3)GlcNAc
# Summary of the method: as §1
# [10] = molecular target: Gal(a1-3)Gal(b1-3)GlcNAc(b1-2)Man
# Summary of the method: as §1
# [11] = molecular target: Gal(a1-3)Gal(b1-3)GlcNAc(b1-2)Man(a1-3)[Gal(a1-3)Gal(b1-3)GlcNAc(b1-2)Man(a1-6)]Man(b1-4)GlcNAc(b1-4)GlcNAc
# Summary of the method: as §1
# [12] = molecular target: Gal(a1-3)Gal(b1-3)GlcNAc(b1-3)GalNAc
# Summary of the method: as §1
# [13] = molecular target: Gal(a1-3)Gal(b1-3)GlcNAc(b1-6)GalNAc
# Summary of the method: as §1
# [14] = molecular target: Gal(a1-3)Gal(b1-3)[Fuc(a1-4)]GlcNAc(b1-2)Man(a1-3)[Gal(a1-3)Gal(b1-3)[Fuc(a1-4)]GlcNAc(b1-2)Man(a1-6)]Man(b1-4)GlcNAc(b1-4)GlcNAc
# Summary of the method: as §1
# [15] = molecular target: Gal(a1-3)Gal(b1-4)Glc
# Summary of the method: as §1
# [16] = molecular target: Gal(a1-3)Gal(b1-4)GlcNAc
# Summary of the method: as §1
# [17] = molecular target: Gal(a1-3)Gal(b1-4)GlcNAc(b1-2)Man
# Summary of the method: as §1
# [18] = molecular target: Gal(a1-3)Gal(b1-4)GlcNAc(b1-2)Man(a1-3)[Gal(a1-3)Gal(b1-4)GlcNAc(b1-2)Man(a1-6)]Man(b1-4)GlcNAc(b1-4)GlcNAc
# Summary of the method: as §1
# [19] = molecular target: Gal(a1-3)Gal(b1-4)GlcNAc(b1-3)GalNAc
# Summary of the method: as §1
# [20] = molecular target: Gal(a1-3)Gal(b1-4)GlcNAc(b1-6)GalNAc
# Summary of the method: as §1
# [21] = molecular target: Gal(a1-3)Gal(b1-4)[Fuc(a1-3)]GlcNAc
# Summary of the method: as §1
# [22] = molecular target: Gal(a1-3)Gal(b1-4)[Fuc(a1-3)]GlcNAc(b1-2)Man(a1-3)[Gal(a1-3)Gal(b1-4)[Fuc(a1-3)]GlcNAc(b1-2)Man(a1-6)]Man(b1-4)GlcNAc(b1-4)GlcNAc
# Summary of the method: as §1
# [23] = molecular target: Gal(a1-3)GalNAc
# Summary of the method: as §1
# [24] = molecular target: Gal(a1-3)[Gal(a1-4)]Gal(b1-4)GlcNAc
# Summary of the method: as §1
# [25] = molecular target: Gal(a1-4)Gal(b1-3)GlcNAc(b1-2)Man(a1-3)[Gal(a1-4)Gal(b1-3)GlcNAc(b1-2)Man(a1-6)]Man(b1-4)GlcNAc(b1-4)GlcNAc
# Summary of the method: as §1
# [26] = molecular target: Gal(a1-4)Gal(b1-4)Glc
# Summary of the method: as §1
# [27] = molecular target: Gal(a1-4)Gal(b1-4)GlcNAc
# Summary of the method: as §1
# [28] = molecular target: Gal(a1-4)Gal(b1-4)GlcNAc(b1-2)Man(a1-3)[Gal(a1-4)Gal(b1-4)GlcNAc(b1-2)Man(a1-6)]Man(b1-4)GlcNAc(b1-4)GlcNAc
# Summary of the method: as §1
# [29] = molecular target: Gal(a1-4)Gal(b1-4)GlcNAc(b1-3)Gal(b1-4)Glc
# Summary of the method: as §1
# [30] = molecular target: Gal(a1-4)GlcNAc
# Summary of the method: as §1
# [31] = molecular target: Gal(a1-6)Glc
# Summary of the method: as §1
# [32] = molecular target: Gal(b1-2)Gal
# Summary of the method: as §1
# [33] = molecular target: Gal(b1-3)Gal
# Summary of the method: as §1
# [34] = molecular target: Gal(b1-3)Gal(b1-4)GlcNAc
# Summary of the method: as §1
# [35] = molecular target: Gal(b1-3)GalNAc
# Summary of the method: as §1
# [36] = molecular target: Gal(b1-3)GalNAc(a1-3)[Fuc(a1-2)]Gal(b1-4)Glc
# Summary of the method: as §1
# [37] = molecular target: Gal(b1-3)GalNAc(a1-3)[Fuc(a1-2)]Gal(b1-4)GlcNAc
# Summary of the method: as §1
# [38] = molecular target: Gal(b1-3)GalNAc(b1-3)Gal
# Summary of the method: as §1
# [39] = molecular target: Gal(b1-3)GalNAc(b1-3)Gal(a1-4)Gal(b1-4)Glc
# Summary of the method: as §1
# [40] = molecular target: Gal(b1-3)GalNAc(b1-4)Gal(b1-4)Glc
# Summary of the method: as §1
# [41] = molecular target: Gal(b1-3)GalNAc(b1-4)[Neu5Ac(a2-3)]Gal(b1-4)Glc
# Summary of the method: as §1
# [42] = molecular target: Gal(b1-3)GlcNAc
# Summary of the method: as §1
# [43] = molecular target: Gal(b1-3)GlcNAc(a1-3)Gal(b1-4)GlcNAc
# Summary of the method: as §1
# [44] = molecular target: Gal(b1-3)GlcNAc(a1-6)Gal(b1-4)GlcNAc
# Summary of the method: as §1
# [45] = molecular target: Gal(b1-3)GlcNAc(b1-2)Man
# Summary of the method: as §1
binder,measurement,setting,value
"CD34 (Homo sapiens), P28906 (protein) MGSSHHHHHHSSGLVPRGSHMSTSLATSPTKPYTSSSPILSDIKAEIKCSGIREVKLTQGICLEQNKTSSCAEFKKDRGEGLARVLCGEEQADADAGAQVCSLLLAQSEVRPQCLLLVLANRTEISSKLQLMKKHQSDLKKLGILDFTEQDVASHQSYSQKT",glycan array binding signal (z-score),[1],0.027
same,glycan array binding signal (z-score),[2],0.434
same,glycan array binding signal (z-score),[3],0.021
same,glycan array binding signal (z-score),[4],0.563
same,glycan array binding signal (z-score),[5],0.624
same,glycan array binding signal (z-score),[6],-0.187
same,glycan array binding signal (z-score),[7],-0.315
same,glycan array binding signal (z-score),[8],0.754
same,glycan array binding signal (z-score),[9],0.398
same,glycan array binding signal (z-score),[10],0.084
same,glycan array binding signal (z-score),[11],0.337
same,glycan array binding signal (z-score),[12],-0.326
same,glycan array binding signal (z-score),[13],-0.355
same,glycan array binding signal (z-score),[14],0.079
same,glycan array binding signal (z-score),[15],0.448
same,glycan array binding signal (z-score),[16],-0.308
same,glycan array binding signal (z-score),[17],-1.01
same,glycan array binding signal (z-score),[18],-0.096
same,glycan array binding signal (z-score),[19],-0.341
same,glycan array binding signal (z-score),[20],-0.095
same,glycan array binding signal (z-score),[21],-0.613
same,glycan array binding signal (z-score),[22],0.796
same,glycan array binding signal (z-score),[23],-0.408
same,glycan array binding signal (z-score),[24],0.595
same,glycan array binding signal (z-score),[25],-0.544
same,glycan array binding signal (z-score),[26],-0.414
same,glycan array binding signal (z-score),[27],-0.781
same,glycan array binding signal (z-score),[28],0.07
same,glycan array binding signal (z-score),[29],-0.647
same,glycan array binding signal (z-score),[30],-0.469
same,glycan array binding signal (z-score),[31],-0.517
same,glycan array binding signal (z-score),[32],-0.471
same,glycan array binding signal (z-score),[33],0.494
same,glycan array binding signal (z-score),[34],-0.649
same,glycan array binding signal (z-score),[35],-0.417
same,glycan array binding signal (z-score),[36],0.602
same,glycan array binding signal (z-score),[37],-0.912
same,glycan array binding signal (z-score),[38],-0.13
same,glycan array binding signal (z-score),[39],0.138
same,glycan array binding signal (z-score),[40],0.08
same,glycan array binding signal (z-score),[41],-0.075
same,glycan array binding signal (z-score),[42],-0.133
same,glycan array binding signal (z-score),[43],0.324
same,glycan array binding signal (z-score),[44],-0.222
same,glycan array binding signal (z-score),[45],0.666

# A second format for some results above:
binder | measurement | setting | value
CD34 (Homo sapiens), P28906 (protein) MGSSHHHHHHSSGLVPRGSHMSTSLATSPTKPYTSSSPILSDIKAEIKCSGIREVKLTQGICLEQNKTSSCAEFKKDRGEGLARVLCGEEQADADAGAQVCSLLLAQSEVRPQCLLLVLANRTEISSKLQLMKKHQSDLKKLGILDFTEQDVASHQSYSQKT | glycan array binding signal (z-score) | [11] | 0.337
same | glycan array binding signal (z-score) | [12] | -0.326

# — the supplement of paper PMC8728848
